Results are given in words; binding and its absence hold for the method and conditions named. Binding seen in cells or lysates may run through a third protein. A result given as binding can be weak or reduced; the word gives no strength.
What was measured:
[1] = molecular target: T1, human X11α (human) (UniProt Q02410); assay: GST pull-down of X11α from cell lysate, Western blot (FIG. 8B)
T1 sequence: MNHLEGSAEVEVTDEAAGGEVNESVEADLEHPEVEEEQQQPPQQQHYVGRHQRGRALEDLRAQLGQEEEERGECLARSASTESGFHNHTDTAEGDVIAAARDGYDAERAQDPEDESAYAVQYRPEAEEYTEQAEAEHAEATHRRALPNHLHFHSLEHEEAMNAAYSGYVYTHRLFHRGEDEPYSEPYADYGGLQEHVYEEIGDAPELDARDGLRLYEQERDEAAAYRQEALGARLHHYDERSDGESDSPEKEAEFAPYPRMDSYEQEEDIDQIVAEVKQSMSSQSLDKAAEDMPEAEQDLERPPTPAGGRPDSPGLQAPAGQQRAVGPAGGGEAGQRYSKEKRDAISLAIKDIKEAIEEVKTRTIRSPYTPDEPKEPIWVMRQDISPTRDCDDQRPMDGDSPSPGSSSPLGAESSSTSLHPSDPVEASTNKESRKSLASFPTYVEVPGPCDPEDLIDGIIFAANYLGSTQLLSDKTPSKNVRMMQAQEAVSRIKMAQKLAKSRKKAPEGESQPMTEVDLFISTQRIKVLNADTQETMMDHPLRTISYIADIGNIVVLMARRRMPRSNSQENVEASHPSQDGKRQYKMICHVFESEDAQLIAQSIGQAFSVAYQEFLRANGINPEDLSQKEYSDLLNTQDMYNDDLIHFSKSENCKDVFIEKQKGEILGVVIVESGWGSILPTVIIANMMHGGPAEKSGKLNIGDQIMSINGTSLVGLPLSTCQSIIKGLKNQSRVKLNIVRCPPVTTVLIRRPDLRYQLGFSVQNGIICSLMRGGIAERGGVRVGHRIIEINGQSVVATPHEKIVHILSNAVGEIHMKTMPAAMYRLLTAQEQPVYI

[2] = molecular target: T1, human X11α (human); assay: GST pull-down of X11 from cell lysate, Western blot (FIG. 8B); members named in the legend

| binding [1] | binding [2] | Substance |
| --- | --- | --- |
| binds | binds | GST-ApoC3 (926-996), GST fusion of ApoER2 cytosolic domain (murine) |
| binds | binds | GST-ApoC1 (881-996), GST fusion of ApoER2 cytosolic domain (murine) |

— patent US20070248599A1 (priority 2006, published 2007)
